Reference: patent US20120070451A1, “METHODS AND COMPOSITIONS FOR MODULATING CARDIAC CONTRACTILITY” (Consiglio Nazionale Delle Ricerche, priority 2009, published 2012)
No constants are given. Whether binding was seen depends on the method and setting. In cells and extracts the contact can be indirect. Some entries that bind do so weakly or less than the wild type.

By UniProt entry, the sequences of proteins in these tests, tags left out. Where a name states a change or a piece, a line headed by the entry shows the natural chain unless it says otherwise. Residues count along the entry.
UniProt Q8CC27: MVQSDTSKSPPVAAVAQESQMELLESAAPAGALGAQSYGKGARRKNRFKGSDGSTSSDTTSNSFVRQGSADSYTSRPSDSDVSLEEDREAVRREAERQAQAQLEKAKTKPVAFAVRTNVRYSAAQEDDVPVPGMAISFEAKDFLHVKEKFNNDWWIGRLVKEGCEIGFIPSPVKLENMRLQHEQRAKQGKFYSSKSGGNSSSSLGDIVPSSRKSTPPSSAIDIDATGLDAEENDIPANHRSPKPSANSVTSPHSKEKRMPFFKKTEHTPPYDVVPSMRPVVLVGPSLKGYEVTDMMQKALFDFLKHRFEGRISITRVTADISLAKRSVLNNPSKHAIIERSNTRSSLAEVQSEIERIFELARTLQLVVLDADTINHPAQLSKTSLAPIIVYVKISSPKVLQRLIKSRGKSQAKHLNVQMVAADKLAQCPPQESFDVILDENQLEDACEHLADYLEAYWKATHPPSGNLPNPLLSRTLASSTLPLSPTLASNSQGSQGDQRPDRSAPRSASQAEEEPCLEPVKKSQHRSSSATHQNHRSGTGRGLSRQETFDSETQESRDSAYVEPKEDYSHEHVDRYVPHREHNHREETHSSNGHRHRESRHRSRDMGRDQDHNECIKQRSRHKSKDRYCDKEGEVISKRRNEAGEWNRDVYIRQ
UniProt Q60823: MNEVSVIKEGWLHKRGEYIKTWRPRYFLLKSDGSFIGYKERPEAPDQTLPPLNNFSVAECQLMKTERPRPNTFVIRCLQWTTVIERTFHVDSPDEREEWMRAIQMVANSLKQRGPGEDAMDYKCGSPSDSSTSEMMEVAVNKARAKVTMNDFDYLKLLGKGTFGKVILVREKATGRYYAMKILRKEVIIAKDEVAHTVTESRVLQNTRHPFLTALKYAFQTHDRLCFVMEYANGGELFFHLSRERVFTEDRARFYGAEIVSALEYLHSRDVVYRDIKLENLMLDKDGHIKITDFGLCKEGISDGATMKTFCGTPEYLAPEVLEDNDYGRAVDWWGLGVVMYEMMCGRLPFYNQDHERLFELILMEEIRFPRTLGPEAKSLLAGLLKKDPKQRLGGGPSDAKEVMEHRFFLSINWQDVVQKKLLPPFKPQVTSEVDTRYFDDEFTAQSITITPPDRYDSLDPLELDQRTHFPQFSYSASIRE
UniProt Q9WUA6, residues 2-479: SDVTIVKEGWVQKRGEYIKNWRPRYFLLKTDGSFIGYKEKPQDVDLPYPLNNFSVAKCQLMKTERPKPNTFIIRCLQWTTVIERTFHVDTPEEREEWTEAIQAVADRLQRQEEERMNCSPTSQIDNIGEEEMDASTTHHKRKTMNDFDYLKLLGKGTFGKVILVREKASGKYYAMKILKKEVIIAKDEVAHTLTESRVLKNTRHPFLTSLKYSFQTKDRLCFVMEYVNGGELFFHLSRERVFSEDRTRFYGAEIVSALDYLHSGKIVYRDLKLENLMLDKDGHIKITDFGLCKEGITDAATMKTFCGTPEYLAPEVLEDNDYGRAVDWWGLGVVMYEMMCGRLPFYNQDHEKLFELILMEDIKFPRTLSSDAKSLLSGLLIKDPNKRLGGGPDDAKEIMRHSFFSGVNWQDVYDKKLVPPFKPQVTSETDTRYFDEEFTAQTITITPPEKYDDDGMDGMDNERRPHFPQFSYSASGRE

Tests used:
[1] = target: Cavβ2 (Ca2+ beta2 channel accessory subunit), endogenous, mouse heart (mouse) (UniProt Q8CC27); assay: co-immunoprecipitation from mouse cardiac extracts
[2] = target: Cavβ2 (Ca2+ beta2 channel accessory subunit), endogenous, mouse heart (mouse) (UniProt Q8CC27); assay: co-immunoprecipitation: Akt isoforms immunoprecipitated from WT mouse cardiac extracts, assayed for Cavβ2
[3] = target: Cavβ2 (Ca2+ beta2 channel accessory subunit), endogenous, mouse heart (mouse) (UniProt Q8CC27); assay: co-immunoprecipitation: Akt isoforms immunoprecipitated from WT cardiac extracts of mice treated or not with insulin, assayed for Cavβ2

binding [1]	binding [2]	binding [3]	Substance
binds	binds	binds	Akt2, endogenous, mouse heart (from UniProt Q60823 1-481) (enzyme)
binds	binds	binds	Akt3, endogenous, mouse heart (from UniProt Q9WUA6 2-479) (enzyme)
